No constants are given. Whether binding was seen depends on the method and setting. In cells and extracts the contact can be indirect. These calls come from enrichment with a bait or labelling near it, and not all partners need be listed.
B1: STT3A (protein, UniProt P46977 1-705)
chain: MTKFGFLRLSYEKQDTLLKLLILSMAAVLSFSTRLFAVLRFESVIHEFDPYFNYRTTRFLAEEGFYKFHNWFDDRAWYPLGRIIGGTIYPGLMITSAAIYHVLHFFHITIDIRNVCVFLAPLFSSFTTIVTYHLTKELKDAGAGLLAAAMIAVVPGYISRSVAGSYDNEGIAIFCMLLTYYMWIKAVKTGSICWAAKCALAYFYMVSSWGGYVFLINLIPLHVLVLMLTGRFSHRIYVAYCTVYCLGTILSMQISFVGFQPVLSSEHMAAFGVFGLCQIHAFVDYLRSKLNPQQFEVLFRSVISLVGFVLLTVGALLMLTGKISPWTGRFYSLLDPSYAKNNIPIIASVSEHQPTTWSSYYFDLQLLVFMFPVGLYYCFSNLSDARIFIIMYGVTSMYFSAVMVRLMLVLAPVMCILSGIGVSQVLSTYMKNLDISRPDKKSKKQQDSTYPIKNEVASGMILVMAFFLITYTFHSTWVTSEAYSSPSIVLSARGGDGSRIIFDDFREAYYWLRHNTPEDAKVMSWWDYGYQITAMANRTILVDNNTWNNTHISRVGQAMASTEEKAYEIMRELDVSYVLVIFGGLTGYSSDDINKFLWMVRIGGSTDTGKHIKENDYYTPTGEFRVDREGSPVLLNCLMYKMCYYRFGQVYTEAKRPPGFDRVRNAEIGNKDFELDVLEEAYTTEHWLVRIYKVKDLDNRGLSRT
B2: SEC11 homolog A, the signal peptidase complex subunit SEC11A (protein, UniProt P67812 1-179)
chain: MLSLDFLDDVRRMNKRQLYYQVLNFGMIVSSALMIWKGLMVITGSESPIVVVLSGSMEPAFHRGDLLFLTNRVEDPIRVGEIVVFRIEGREIPIVHRVLKIHEKQNGHIKFLTKGDNNAVDDRGLYKQGQHWLEKKDVVGRARGFVPYIGIVTILMNDYPKFKYAVLFLLGLFVLVHRE
B3: STT3 oligosaccharyltransferase complex catalytic subunit B (STT3B) (protein, UniProt Q8TCJ2 1-826)
chain: MAEPSAPESKHKSSLNSSPWSGLMALGNSRHGHHGPGAQCAHKAAGGAAPPKPAPAGLSGGLSQPAGWQSLLSFTILFLAWLAGFSSRLFAVIRFESIIHEFDPWFNYRSTHHLASHGFYEFLNWFDERAWYPLGRIVGGTVYPGLMITAGLIHWILNTLNITVHIRDVCVFLAPTFSGLTSISTFLLTRELWNQGAGLLAACFIAIVPGYISRSVAGSFDNEGIAIFALQFTYYLWVKSVKTGSVFWTMCCCLSYFYMVSAWGGYVFIINLIPLHVFVLLLMQRYSKRVYIAYSTFYIVGLILSMQIPFVGFQPIRTSEHMAAAGVFALLQAYAFLQYLRDRLTKQEFQTLFFLGVSLAAGAVFLSVIYLTYTGYIAPWSGRFYSLWDTGYAKIHIPIIASVSEHQPTTWVSFFFDLHILVCTFPAGLWFCIKNINDERVFVALYAISAVYFAGVMVRLMLTLTPVVCMLSAIAFSNVFEHYLGDDMKRENPPVEDSSDEDDKRNQGNLYDKAGKVRKHATEQEKTEEGLGPNIKSIVTMLMLMLLMMFAVHCTWVTSNAYSSPSVVLASYNHDGTRNILDDFREAYFWLRQNTDEHARVMSWWDYGYQIAGMANRTTLVDNNTWNNSHIALVGKAMSSNETAAYKIMRTLDVDYVLVIFGGVIGYSGDDINKFLWMVRIAEGEHPKDIRESDYFTPQGEFRVDKAGSPTLLNCLMYKMSYYRFGEMQLDFRTPPGFDRTRNAEIGNKDIKFKHLEEAFTSEHWLVRIYKVKAPDNRETLDHKPRVTNIFPKQKYLSKKTTKRKRGYIKNKLVFKKGKKISKKTV
B4: SDF2L1 (protein, UniProt Q9HCN8 29-221)
chain: AKTGAELVTCGSVLKLLNTHHRVRLHSHDIKYGSGSGQQSVTGVEASDDANSYWRIRGGSEGGCPRGSPVRCGQAVRLTHVLTGKNLHTHHFPSPLSNNQEVSAFGEDGEGDDLDLWTVRCSGQHWEREAAVRFQHVGTSVFLSVTGEQYGSPIRGQHEVHGMPSANTHNTWKAMEGIFIKPSVEPSAGHDEL
B5: sodium bicarbonate cotransporter 3 SLC4A7 (protein, UniProt Q9Y6M7 1-1214)
chain: MERFRLEKKLPGPDEEAVVDLGKTSSTVNTKFEKEELESHRAVYIGVHVPFSKESRRRHRHRGHKHHHRRRKDKESDKEDGRESPSYDTPSQRVQFILGTEDDDEEHIPHDLFTEMDELCYRDGEEYEWKETARWLKFEEDVEDGGDRWSKPYVATLSLHSLFELRSCILNGTVMLDMRASTLDEIADMVLDNMIASGQLDESIRENVREALLKRHHHQNEKRFTSRIPLVRSFADIGKKHSDPHLLERNGEGLSASRHSLRTGLSASNLSLRGESPLSLLLGHLLPSSRAGTPAGSRCTTPVPTPQNSPPSSPSISRLTSRSSQESQRQAPELLVSPASDDIPTVVIHPPEEDLEAALKGEEQKNEENVDLTPGILASPQSAPGNLDNSKSGEIKGNGSGGSRENSTVDFSKVDMNFMRKIPTGAEASNVLVGEVDFLERPIIAFVRLAPAVLLTGLTEVPVPTRFLFLLLGPAGKAPQYHEIGRSIATLMTDEIFHDVAYKAKDRNDLLSGIDEFLDQVTVLPPGEWDPSIRIEPPKSVPSQEKRKIPVFHNGSTPTLGETPKEAAHHAGPELQRTGRLFGGLILDIKRKAPFFLSDFKDALSLQCLASILFLYCACMSPVITFGGLLGEATEGRISAIESLFGASLTGIAYSLFAGQPLTILGSTGPVLVFEKILYKFCRDYQLSYLSLRTSIGLWTSFLCIVLVATDASSLVCYITRFTEEAFAALICIIFIYEALEKLFDLGETYAFNMHNNLDKLTSYSCVCTEPPNPSNETLAQWKKDNITAHNISWRNLTVSECKKLRGVFLGSACGHHGPYIPDVLFWCVILFFTTFFLSSFLKQFKTKRYFPTKVRSTISDFAVFLTIVIMVTIDYLVGVPSPKLHVPEKFEPTHPERGWIISPLGDNPWWTLLIAAIPALLCTILIFMDQQITAVIINRKEHKLKKGAGYHLDLLMVGVMLGVCSVMGLPWFVAATVLSISHVNSLKVESECSAPGEQPKFLGIREQRVTGLMIFILMGLSVFMTSVLKFIPMPVLYGVFLYMGVSSLKGIQLFDRIKLFGMPAKHQPDLIYLRYVPLWKVHIFTVIQLTCLVLLWVIKVSAAAVVFPMMVLALVFVRKLMDLCFTKRELSWLDDLMPESKKKKEDDKKKKEKEEAERMLQDDDDTVHLPFEGGSLLQIPVKALKYSPDKPVSVKISFEDEPRKKYVDAETSL

What was measured:
[1] = target: HA-tagged envelope protein 2 (HA-E2) of HCV Jc1 (hepatitis C virus Jc1 (genotype 2a)); assay: affinity purification with mass spectrometry; as a1, cells replicating the HA-E2 virus with the core P138A P143A double mutation (core DP); control: the cognate untagged mutant virus; second data set
[2] = target: HA-tagged envelope protein 2 (HA-E2) of HCV Jc1 (hepatitis C virus Jc1 (genotype 2a)); assay: affinity purification with mass spectrometry; anti-HA agarose, overnight 4 °C, on pre-cleared lysates (50 mM HEPES pH 7.4, 150 mM NaCl, 10% glycerol, 1% NP-40, 1 mM CaCl2) of Huh-7.5 cells 48 h after transfection with HA-tagged Jc1 RNA of parental background (HA-E2, HAHA-p7, HA-NS4B Q31R) or of Huh-7.5/HA-ApoE cells with Jc1; label-free LC-MS/MS against untagged controls; two data sets for HA-E2
[3] = target: double HA-epitope tagged p7 (HAHA-p7) of HCV Jc1 (hepatitis C virus Jc1 (genotype 2a)); assay: as above
[4] = target: HA-tagged envelope protein 2 (HA-E2) of HCV Jc1 (hepatitis C virus Jc1 (genotype 2a)); assay: affinity purification with mass spectrometry; as a1, cells replicating the HA-E2 virus with core residues 69-72 changed to alanines (core C69-72A); control: the cognate untagged mutant virus; second data set
[5] = target: HA-tagged envelope protein 2 (HA-E2) of HCV Jc1 (hepatitis C virus Jc1 (genotype 2a)); assay: affinity purification with mass spectrometry; as a1, cells replicating the HA-E2 virus with the E1 K179Q mutation; control: the cognate untagged mutant virus; second data set

Row | Binder | binding [1] | binding [2] | binding [3] | also measured
1 | B1 | binds | binds |  | 
2 | B2 |  |  | binds | 
3 | B3 | binds | binds | binds | 
4 | B4 |  |  |  | binding [4]: binds
5 | B5 |  |  |  | binding [5]: binds

Reference: paper PMC10846047
